Data as given in paper PMC10008561.
These are yes or no findings as the source states them, for the method shown. Binding seen in cells or lysates may run through a third protein. Some entries that bind do so weakly or less than the wild type.

By UniProt entry, the sequences of proteins in these tests, tags left out.
UniProt P41145: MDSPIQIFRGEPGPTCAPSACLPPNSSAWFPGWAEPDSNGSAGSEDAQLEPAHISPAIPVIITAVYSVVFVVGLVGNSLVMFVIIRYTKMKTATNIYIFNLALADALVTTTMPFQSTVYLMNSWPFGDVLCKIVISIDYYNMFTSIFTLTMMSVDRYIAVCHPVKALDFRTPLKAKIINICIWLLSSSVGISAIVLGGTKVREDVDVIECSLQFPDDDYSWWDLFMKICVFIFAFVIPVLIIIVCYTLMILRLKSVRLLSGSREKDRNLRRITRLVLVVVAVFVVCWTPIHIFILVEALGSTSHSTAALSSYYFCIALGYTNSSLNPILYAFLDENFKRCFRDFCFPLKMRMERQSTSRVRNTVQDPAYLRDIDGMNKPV
UniProt P32121: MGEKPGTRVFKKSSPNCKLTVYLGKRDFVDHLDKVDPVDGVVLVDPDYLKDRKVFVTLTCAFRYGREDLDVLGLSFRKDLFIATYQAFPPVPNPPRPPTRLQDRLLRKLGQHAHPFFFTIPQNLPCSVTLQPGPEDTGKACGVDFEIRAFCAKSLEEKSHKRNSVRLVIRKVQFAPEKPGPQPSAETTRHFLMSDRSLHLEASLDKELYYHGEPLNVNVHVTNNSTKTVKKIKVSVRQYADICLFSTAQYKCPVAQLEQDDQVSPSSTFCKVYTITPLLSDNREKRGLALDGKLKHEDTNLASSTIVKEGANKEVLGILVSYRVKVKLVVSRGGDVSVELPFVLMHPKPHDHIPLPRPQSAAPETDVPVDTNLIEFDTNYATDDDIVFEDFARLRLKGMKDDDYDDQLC

Molecular target: human KOR fused with Renilla luciferase at the C-terminus (KOR-RLuc8) (human) (UniProt P41145)
Experiment: FRET or BRET; BRET1 arrestin recruitment in HEK293T cells co-transfected 1:5 with KOR-RLuc8 and mVenus-β-arrestin 1 or 2; coelenterazine h; agonist (U50,488, nalfurafine, WMS-X600) added for 5 min at room temperature

For “β-arrestin 2 fused with mVenus at the N-terminus (mVenus-βarrestin 2) (from UniProt P32121 1-409)”, the binding was “binds”.
